These results are taken from publication PMC2909264.

The chains behind the UniProt entries cited, without tags or fusion partners. Where a name states a change or a piece, a line headed by the entry shows the natural chain unless it says otherwise.
UniProt Q96EB6: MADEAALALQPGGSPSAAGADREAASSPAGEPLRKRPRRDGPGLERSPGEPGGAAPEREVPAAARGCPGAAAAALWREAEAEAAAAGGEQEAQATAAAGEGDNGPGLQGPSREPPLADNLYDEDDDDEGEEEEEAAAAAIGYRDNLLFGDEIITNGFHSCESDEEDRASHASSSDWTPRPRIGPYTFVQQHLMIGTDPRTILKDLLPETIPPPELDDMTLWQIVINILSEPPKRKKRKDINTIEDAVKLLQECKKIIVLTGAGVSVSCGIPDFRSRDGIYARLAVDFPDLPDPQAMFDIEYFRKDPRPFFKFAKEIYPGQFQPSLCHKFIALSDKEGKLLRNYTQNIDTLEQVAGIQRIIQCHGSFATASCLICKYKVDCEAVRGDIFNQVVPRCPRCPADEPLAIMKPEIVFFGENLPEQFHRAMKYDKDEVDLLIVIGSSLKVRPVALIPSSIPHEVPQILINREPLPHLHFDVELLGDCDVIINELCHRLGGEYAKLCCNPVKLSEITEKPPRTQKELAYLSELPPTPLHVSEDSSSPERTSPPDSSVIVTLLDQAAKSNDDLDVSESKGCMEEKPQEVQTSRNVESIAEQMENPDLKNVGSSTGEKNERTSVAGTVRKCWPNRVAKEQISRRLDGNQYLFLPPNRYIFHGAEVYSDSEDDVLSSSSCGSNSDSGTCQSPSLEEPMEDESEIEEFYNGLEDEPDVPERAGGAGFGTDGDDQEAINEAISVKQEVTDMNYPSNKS
UniProt O70161: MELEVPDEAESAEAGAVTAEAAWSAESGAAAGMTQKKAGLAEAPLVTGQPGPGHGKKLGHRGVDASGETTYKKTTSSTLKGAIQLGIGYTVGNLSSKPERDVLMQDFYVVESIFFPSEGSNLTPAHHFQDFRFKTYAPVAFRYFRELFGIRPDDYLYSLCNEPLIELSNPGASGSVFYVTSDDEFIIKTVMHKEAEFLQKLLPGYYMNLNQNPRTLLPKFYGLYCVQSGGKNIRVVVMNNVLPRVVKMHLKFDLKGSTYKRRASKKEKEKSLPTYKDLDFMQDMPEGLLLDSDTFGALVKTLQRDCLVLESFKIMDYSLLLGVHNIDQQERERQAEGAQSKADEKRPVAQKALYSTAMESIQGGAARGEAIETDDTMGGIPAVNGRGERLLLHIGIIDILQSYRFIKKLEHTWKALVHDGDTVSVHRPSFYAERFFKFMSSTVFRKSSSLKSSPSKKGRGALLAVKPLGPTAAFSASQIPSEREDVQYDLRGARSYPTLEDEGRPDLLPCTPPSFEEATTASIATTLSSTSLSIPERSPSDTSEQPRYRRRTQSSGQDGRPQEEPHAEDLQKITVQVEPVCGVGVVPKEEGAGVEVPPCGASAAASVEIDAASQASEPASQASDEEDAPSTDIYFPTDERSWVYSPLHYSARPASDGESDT
UniProt O60331: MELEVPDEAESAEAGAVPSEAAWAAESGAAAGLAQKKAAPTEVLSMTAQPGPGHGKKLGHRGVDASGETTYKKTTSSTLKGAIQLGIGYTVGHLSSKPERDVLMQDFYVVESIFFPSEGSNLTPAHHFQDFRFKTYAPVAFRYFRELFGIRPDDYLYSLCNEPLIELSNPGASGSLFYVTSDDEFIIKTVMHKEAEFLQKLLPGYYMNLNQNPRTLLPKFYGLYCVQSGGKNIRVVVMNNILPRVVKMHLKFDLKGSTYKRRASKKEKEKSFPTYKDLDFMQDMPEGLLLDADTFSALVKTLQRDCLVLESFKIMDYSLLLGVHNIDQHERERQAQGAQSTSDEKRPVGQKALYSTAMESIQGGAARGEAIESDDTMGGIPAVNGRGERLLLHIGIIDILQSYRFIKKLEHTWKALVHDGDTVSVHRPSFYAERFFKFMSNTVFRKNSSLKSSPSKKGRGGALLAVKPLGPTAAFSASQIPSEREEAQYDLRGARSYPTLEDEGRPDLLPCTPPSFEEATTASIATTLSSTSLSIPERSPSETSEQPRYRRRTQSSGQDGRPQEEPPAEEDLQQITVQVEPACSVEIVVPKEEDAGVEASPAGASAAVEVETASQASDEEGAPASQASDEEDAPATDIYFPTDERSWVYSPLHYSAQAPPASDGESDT

Results are given in words; binding and its absence hold for the method and conditions named. Binding seen in cells or lysates may run through a third protein. Some results given as binding are weak or reduced against the parent protein; the word gives no strength. For part of these data: Sequences can lack the tags named with a protein.

The target in one test is T1, Flag-tagged SIRT1 (UniProt Q923E4).
T1 sequence: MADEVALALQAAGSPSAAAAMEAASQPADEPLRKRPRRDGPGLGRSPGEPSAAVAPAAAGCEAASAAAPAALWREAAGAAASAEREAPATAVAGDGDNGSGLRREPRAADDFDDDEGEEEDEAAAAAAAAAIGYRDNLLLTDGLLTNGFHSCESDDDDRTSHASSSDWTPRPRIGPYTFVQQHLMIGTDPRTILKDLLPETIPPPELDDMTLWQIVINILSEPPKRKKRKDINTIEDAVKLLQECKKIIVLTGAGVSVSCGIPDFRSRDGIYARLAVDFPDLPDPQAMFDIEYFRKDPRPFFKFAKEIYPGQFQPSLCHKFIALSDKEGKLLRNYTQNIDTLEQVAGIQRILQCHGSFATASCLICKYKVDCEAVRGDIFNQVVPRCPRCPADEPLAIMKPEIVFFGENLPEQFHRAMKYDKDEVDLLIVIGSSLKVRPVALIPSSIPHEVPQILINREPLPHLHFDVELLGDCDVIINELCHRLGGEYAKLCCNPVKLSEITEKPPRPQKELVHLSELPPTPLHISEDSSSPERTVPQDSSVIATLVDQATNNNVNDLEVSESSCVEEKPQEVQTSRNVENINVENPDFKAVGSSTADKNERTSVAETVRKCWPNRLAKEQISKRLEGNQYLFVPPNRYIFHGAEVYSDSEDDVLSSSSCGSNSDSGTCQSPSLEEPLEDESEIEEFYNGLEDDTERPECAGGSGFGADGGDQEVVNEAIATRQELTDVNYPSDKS
Put plainly: co-IP; mapping with deletion mutants of PIP5Kγ; transfected HEK293T cells lysed in 25 mM Tris-HCl pH 8.0, 100 mM NaCl, 2 mM EDTA, 0.2% Triton X-100 with protease inhibitors, trichostatin A and NAM; antibodies and tags of this panel not told.

Test [1] deals with T2, SIRT1 of the pituitary gland (cytosolic fraction) (mouse (endogenous in pituitary gland)) (UniProt Q923E4).
T2 sequence: T1 sequence
As to the kind of experiment: co-IP; cytosolic fraction of the pituitary gland, antibodies specific for SIRT1 and for PIP5Kγ, rabbit IgG as negative control.

The target in test [2] is endogenous SIRT1 (HEK293T cells) (human (endogenous in HEK293T)) (UniProt Q96EB6). Put plainly: co-IP; endogenous proteins of HEK293T cells, antibodies to SIRT1 and to PIP5Ks.

Consider “PIP5Kγ (expressed from plasmid, parent of the deletion mutants) (from UniProt O70161 1-661) (enzyme)”, for which, in the test with Flag-tagged SIRT1, the binding entry is recorded as “binds”.

For the substance “PIP5Kγ of the pituitary gland (cytosolic fraction) (from UniProt O70161 1-661) (enzyme)”, in test [1], the binding result is reported as “binds”.

On to “endogenous PIP5Kγ (HEK293T cells) (from UniProt O60331 1-668) (enzyme)”, for which the binding result in test [2] is “binds”.
